Here are results for two molecules from patent US20060008800A1 (published 2006).

For experiment [1], the target named is T1, Calmodulin from rat brain synaptosome extract (rat, UniProt P0DP29 2-149). Briefly: GST cosedimentation with rat brain synaptosome extract, Calmodulin immunoblot.
The target in experiment [2] is T1, Calmodulin from rat brain synaptosome …. The experiment can be described thus: GST cosedimentation from rat brain synaptosome extract, Calmodulin immunoblot.

Residue numbers refer to the chain shown, from its start. In names and notes the source's numbering stands.

B1: GST-ubMunc13-2 (372-494) (other)
chain: PEEKASSPFTQARAHWFRAVTKVRLQLQEISDDGDPSLPQWLPEGPAGGLYGIDSMPDLRRKKPLPLVSDLAMSLVQSRKAGITSAMATRTSLKDEDLKSHVYKKTLQALIYPISCTTPHNFE
notes: Expressed in bacteria, purified, adsorbed onto glutathione beads; also called GSTubMunc13-2 (aa 372-494); wt GST-ubMunc13-2 (372-494); not shown: GST tag (glutathione S-transferase)
As to B1, the binding result in experiment [1] is “binds”.

B2: GST-ubMunc13-2 (372-494) with W387R point mutation (other, not shown: a dimerising Fc or GST; large carriers; small tags and cut ends)
chain: B1 chain with W16R
notes: also called GST-fusion proteins that contain the tryptophane mutations
B2: the binding result in experiment [2] was “no binding”.
